The series relates to WT (W303) yeast. To be noted: 200 μM, 4 h incubation.

Consider “11,11,14,14-Tetradeutero-cis,cis,cis-octadeca-8,12,15-trienoic acid [D4-ALA]”, for which the “incorporation of fatty acid by yeast” value is on record as “avidly incorporate”.

(Values after US10058612B2, “Impaired energy processing disorders and mitochondrial deficiency” (priority 2011, dated 2018).)
